Taken from: PubChem BioAssay AID602196 (INSERM, 2012)
Screen: 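Knock-downs that protect lung cancer cells from cisplatin or sensitise them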. Cell system: human A549 lung cancer cells. Reagents: siRNA pair against human genes. Duration: 48 h transfection before cisplatin; time from cisplatin to read-out not stated. Conditions: cisplatin at a dose killing half of control-siRNA cells; exact dose and duration not given. Detection: 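Shift in cisplatin death relative to control siRNA, from -50 (all cells die) to +50 (no cells die); siRNAs harmful on their own scored 0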. Direction: two-siRNA summed score (-2 to +2): higher = both siRNAs protect from cisplatin killing; -2 means both sensitise; mean protection from cisplatin (shift in death) and protection from cisplatin (shift in death), siRNA C and protection from cisplatin (shift in death), siRNA D: higher = protection from cisplatin killing. Rule for the call: 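Each siRNA scores 0 if harmful alone by LDH or WST-1, otherwise +1 if it reduces and -1 if it increases cisplatin killing; a gene is active when both siRNAs agree (sum +2 or -2)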. Calls: active = both siRNAs shift cisplatin killing the same way; inactive = no consistent shift, or siRNA harmful alone.
Shown is a random part of about 23,000 reagents tested. 455 of all reagents (2%) were called active. 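Active includes both protection and sensitisation; some change values fall well beyond the stated -50 to +50 range.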 Entries without a mark were called inactive. Not stated in the record: the amount of reagent.

target | two-siRNA summed score (-2 to +2) | mean protection from cisplatin (shift in death) (%) | protection from cisplatin (shift in death), siRNA C (%) | protection from cisplatin (shift in death), siRNA D (%)
ARHGEF28 | 0 | 7.4 | 0.2 | 14.5
TNS2 | 0 | -2.7 | 7.4 | -12.7
TAAR8 | 0 | 0.5 | 4.2 | -3.3
PSMG1 | -1 | -2 | 14.5 | -18.4
EDDM3A | 0 | -3.4 | 3.8 | -10.5
PGPEP1 | 0 | 10.2 | 15.8 | 4.5
AP2M1 | 0 | -9.1 | 5 | -23.1
HTR6 | 0 | -4 | 1.2 | -9.2
ITGA2B | 0 | 7.6 | 8.2 | 7.1
SNAP25 | 0 | -11.2 | -11.2 | -11.3
NPNT | 1 | 8 | 16.5 | -0.4
RHOBTB1 | 0 | 10.6 | 4.4 | 16.9
CCDC22 | 0 | -4.6 | -1.3 | -7.8
NPHS2 | 1 | -2.5 | -15.9 | 10.9
SESN3 | 1 | 11.4 | 26.8 | -4.1
CCDC144NL-AS1 | 1 | 13.7 | 5.6 | 21.7
GBE1 | 0 | 6.9 | 15.1 | -1.3
ART1 | 0 | -1.9 | 3 | -6.7
ATP5PD | 0 | 3.6 | 5.8 | 1.4
EEF1A2 | 0 | 8.3 | -8.5 | 25.1
SLC27A2 | 0 | 9.3 | 16.7 | 1.9
PRDM7 | 0 | 6.4 | 3.9 | 8.8
CPT1A | 0 | 0.5 | -2 | 3
CEACAM6 | 1 | 22.8 | 27.5 | 18.1
FGD2 | 0 | 6 | 14 | -1.9
TEX15 | 0 | 3.5 | 21.8 | -14.7
ARPP19 | 0 | -13.8 | 4.6 | -32.2
LOC402626 | 0 | 5.5 | 3.8 | 7.2
TEC | -1 | -5.5 | -16.3 | 5.3
LOC440456 | 0 | 17.6 | 8.1 | 27.1
LOC440966 | 1 | 20.4 | 24.5 | 16.3
DRC9 | 0 | 12.9 | 9.4 | 16.3
SACM1L | 0 | -2.2 | -6.9 | 2.5
MIS18BP1 | 0 | 3.4 | 7 | -0.2
OTOS | 0 | -5.9 | -10 | -1.7
LEMD2 | 0 | 4.4 | 11.3 | -2.6
RDM1 | 0 | -6.6 | -14.6 | 1.4
C1orf174 | 0 | 6.4 | 10.7 | 2.1
EGLN1 | 0 | -2 | 2.2 | -6.3

Reprinted from above for reference:
target | two-siRNA summed score (-2 to +2) | mean protection from cisplatin (shift in death) (%) | protection from cisplatin (shift in death), siRNA C (%) | protection from cisplatin (shift in death), siRNA D (%)
LOC440966 | 1 | 20.4 | 24.5 | 16.3
DRC9 | 0 | 12.9 | 9.4 | 16.3
SACM1L | 0 | -2.2 | -6.9 | 2.5
MIS18BP1 | 0 | 3.4 | 7 | -0.2
OTOS | 0 | -5.9 | -10 | -1.7
